Measured values published in paper PMC11841684.
Results are given in words; binding and its absence hold for the method and conditions named. For some assays here: In cells and extracts the contact can be indirect. Some results given as binding are weak or reduced against the parent protein; the word gives no strength. One block for each substance: values may come before it.

By UniProt entry, the sequences of proteins in these tests, tags left out. Where a name states a change or a piece, a line headed by the entry shows the natural chain unless it says otherwise. Residues count along the entry.
UniProt Q96RW7: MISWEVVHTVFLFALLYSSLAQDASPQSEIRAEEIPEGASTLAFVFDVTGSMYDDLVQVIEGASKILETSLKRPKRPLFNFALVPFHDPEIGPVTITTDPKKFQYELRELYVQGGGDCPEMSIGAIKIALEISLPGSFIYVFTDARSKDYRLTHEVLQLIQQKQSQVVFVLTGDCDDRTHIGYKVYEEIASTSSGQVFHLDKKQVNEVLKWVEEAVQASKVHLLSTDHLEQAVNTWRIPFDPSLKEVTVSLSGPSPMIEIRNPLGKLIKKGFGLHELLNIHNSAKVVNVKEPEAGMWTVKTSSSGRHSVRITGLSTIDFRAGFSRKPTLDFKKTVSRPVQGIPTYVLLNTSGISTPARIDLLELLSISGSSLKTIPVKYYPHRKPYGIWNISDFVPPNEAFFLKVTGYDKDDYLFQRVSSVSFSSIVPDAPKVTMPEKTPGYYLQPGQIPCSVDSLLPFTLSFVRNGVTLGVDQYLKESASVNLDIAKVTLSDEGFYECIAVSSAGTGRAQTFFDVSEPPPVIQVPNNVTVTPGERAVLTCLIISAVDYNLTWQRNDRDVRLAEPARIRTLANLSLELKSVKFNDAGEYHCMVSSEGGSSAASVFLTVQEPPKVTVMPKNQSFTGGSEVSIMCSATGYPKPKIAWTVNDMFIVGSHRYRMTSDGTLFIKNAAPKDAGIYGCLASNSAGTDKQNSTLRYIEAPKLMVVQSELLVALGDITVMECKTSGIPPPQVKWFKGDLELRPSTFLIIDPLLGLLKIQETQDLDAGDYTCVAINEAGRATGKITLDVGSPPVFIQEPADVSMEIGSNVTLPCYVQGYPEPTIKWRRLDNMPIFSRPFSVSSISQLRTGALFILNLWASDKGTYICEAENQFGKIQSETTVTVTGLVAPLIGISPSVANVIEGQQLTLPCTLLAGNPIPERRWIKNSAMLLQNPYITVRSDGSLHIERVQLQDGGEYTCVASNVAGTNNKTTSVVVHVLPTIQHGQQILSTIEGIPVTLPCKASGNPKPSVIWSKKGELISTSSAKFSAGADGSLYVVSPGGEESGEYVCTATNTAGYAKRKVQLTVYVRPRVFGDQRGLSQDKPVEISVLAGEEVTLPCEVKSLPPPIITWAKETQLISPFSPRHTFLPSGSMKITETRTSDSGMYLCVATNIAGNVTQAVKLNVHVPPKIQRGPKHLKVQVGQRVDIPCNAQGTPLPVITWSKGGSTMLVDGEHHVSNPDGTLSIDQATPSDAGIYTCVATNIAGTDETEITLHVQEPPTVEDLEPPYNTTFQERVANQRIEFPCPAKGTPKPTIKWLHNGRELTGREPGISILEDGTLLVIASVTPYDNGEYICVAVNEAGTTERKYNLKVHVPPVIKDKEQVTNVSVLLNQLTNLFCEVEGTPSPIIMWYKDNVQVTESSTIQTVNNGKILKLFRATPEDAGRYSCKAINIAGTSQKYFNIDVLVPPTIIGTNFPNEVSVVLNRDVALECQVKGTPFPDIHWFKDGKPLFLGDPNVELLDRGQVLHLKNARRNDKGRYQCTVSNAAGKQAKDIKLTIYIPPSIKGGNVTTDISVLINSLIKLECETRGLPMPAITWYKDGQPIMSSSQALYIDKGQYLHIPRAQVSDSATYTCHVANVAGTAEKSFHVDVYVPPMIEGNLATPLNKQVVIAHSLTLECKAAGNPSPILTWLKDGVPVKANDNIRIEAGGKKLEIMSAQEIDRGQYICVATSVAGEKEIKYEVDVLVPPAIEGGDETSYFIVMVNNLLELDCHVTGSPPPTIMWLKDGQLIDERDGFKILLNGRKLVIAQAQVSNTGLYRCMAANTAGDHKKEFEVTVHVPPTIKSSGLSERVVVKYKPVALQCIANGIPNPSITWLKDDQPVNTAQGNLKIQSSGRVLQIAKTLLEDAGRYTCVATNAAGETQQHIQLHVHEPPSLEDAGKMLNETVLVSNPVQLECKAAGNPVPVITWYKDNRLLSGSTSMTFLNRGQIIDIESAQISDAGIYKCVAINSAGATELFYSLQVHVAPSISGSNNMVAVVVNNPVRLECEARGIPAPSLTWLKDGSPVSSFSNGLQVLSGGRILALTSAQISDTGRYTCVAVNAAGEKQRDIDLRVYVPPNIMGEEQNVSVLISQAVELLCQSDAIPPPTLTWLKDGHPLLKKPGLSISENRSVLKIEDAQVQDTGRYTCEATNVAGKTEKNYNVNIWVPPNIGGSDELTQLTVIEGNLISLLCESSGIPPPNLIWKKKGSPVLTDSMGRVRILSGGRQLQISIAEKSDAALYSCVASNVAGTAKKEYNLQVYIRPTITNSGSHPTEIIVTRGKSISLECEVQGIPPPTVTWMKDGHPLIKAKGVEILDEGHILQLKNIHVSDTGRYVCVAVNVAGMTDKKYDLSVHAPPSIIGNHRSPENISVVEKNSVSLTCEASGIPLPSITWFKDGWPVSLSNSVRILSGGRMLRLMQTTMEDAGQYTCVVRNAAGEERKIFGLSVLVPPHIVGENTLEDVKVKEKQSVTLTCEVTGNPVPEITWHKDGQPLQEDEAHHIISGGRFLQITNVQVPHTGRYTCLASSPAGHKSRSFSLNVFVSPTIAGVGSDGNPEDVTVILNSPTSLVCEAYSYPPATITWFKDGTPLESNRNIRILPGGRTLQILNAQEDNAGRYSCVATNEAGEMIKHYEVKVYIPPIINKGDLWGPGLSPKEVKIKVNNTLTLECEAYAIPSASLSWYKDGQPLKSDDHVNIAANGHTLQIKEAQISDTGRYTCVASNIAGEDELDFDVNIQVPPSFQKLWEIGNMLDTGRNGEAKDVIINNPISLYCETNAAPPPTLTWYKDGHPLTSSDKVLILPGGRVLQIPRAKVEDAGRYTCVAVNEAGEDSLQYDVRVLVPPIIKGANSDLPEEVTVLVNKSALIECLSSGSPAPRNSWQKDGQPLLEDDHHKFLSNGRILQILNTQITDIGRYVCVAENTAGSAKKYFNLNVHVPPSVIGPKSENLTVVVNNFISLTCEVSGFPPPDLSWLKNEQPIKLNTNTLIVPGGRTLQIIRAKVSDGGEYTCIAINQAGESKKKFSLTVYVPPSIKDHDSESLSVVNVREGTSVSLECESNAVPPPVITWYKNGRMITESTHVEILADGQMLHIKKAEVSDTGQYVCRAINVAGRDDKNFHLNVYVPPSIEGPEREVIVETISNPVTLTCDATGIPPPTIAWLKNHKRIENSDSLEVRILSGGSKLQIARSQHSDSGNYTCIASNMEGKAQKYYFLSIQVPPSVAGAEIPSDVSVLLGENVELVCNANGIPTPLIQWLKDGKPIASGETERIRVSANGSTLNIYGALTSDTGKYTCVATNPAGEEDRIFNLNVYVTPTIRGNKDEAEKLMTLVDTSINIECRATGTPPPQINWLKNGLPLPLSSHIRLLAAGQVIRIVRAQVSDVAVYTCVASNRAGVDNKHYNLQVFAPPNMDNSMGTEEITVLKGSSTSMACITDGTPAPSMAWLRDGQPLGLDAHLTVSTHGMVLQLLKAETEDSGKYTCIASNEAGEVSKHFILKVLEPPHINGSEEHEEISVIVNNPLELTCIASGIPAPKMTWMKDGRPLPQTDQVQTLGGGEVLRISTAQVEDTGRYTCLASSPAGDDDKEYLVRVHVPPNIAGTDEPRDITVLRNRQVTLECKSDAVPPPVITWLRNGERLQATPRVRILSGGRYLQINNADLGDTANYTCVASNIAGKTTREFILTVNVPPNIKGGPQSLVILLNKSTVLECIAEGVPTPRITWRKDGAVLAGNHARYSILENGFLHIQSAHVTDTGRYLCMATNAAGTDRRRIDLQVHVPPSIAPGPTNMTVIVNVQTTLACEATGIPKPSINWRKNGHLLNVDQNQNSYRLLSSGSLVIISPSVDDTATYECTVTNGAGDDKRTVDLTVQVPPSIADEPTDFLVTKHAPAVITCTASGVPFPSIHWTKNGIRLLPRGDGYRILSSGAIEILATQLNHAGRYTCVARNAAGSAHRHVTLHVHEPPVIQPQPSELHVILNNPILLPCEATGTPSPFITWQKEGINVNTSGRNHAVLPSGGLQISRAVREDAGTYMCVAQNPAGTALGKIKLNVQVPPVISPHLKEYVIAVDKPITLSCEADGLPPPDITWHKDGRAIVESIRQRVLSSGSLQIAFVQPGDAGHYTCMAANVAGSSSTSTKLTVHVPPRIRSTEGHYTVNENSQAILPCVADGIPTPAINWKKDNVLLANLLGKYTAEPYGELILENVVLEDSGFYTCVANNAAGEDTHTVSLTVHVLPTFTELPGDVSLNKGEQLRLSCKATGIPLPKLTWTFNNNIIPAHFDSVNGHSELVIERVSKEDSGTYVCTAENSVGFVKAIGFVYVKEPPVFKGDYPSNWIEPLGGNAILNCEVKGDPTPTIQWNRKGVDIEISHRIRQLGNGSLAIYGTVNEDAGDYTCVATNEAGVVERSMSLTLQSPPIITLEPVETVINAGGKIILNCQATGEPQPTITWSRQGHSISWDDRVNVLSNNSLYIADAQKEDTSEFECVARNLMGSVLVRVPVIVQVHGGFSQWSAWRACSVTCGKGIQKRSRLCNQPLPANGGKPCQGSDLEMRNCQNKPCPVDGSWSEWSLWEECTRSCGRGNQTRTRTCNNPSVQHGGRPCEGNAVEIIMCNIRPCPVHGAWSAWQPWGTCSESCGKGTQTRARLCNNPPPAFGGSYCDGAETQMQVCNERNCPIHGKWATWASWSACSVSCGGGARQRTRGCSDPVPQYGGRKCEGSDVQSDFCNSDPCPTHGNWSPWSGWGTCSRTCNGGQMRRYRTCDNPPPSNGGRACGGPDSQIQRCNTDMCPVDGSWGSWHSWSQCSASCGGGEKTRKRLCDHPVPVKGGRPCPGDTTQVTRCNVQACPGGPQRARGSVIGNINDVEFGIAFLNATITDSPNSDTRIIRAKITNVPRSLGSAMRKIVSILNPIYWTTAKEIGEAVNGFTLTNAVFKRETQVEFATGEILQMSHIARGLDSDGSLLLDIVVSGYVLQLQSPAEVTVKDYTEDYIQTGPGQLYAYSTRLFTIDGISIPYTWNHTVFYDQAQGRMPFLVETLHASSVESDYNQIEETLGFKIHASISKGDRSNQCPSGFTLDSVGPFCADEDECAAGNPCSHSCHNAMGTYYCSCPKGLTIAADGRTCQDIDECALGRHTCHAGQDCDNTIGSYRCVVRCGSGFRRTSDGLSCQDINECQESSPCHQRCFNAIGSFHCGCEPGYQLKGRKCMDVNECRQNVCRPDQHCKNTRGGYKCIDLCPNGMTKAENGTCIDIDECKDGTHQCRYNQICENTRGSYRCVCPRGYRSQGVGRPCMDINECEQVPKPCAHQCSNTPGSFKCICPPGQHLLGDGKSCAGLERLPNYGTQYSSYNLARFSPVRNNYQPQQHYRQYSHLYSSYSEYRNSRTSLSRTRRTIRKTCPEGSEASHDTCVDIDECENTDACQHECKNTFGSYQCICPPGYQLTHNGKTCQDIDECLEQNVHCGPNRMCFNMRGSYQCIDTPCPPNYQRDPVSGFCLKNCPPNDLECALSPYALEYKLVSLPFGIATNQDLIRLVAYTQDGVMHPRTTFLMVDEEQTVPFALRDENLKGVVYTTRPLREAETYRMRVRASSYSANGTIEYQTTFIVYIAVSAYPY
hemicentin-1 N-(VWFA) terminal part (aa 1–212), LexA fusion bait (pB29-HMCN1): residues 1-212 of Q96RW7
UniProt P02533: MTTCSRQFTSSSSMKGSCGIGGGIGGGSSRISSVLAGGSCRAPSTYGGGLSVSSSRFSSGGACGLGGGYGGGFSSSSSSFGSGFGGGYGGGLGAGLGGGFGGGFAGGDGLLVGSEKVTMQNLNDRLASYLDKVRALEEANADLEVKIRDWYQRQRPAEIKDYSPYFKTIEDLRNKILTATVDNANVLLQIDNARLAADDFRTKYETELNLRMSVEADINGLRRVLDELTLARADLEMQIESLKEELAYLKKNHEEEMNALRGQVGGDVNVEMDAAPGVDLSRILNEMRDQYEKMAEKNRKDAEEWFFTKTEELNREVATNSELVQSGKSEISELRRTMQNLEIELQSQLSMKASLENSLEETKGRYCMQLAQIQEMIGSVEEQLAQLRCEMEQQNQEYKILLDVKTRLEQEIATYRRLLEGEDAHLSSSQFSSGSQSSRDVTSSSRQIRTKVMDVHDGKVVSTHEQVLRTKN

Assays:
[1] = molecular target: hemicentin-1 N-(VWFA) terminal part (aa 1–212), LexA fusion bait (pB29-HMCN1) (human) (UniProt Q96RW7); experiment: two-hybrid; solid growth test, one bait against one prey: streaks of three independent diploid yeast clones on DO-2 and DO-3 media, HIS3 reporter; empty bait and prey vectors as negative controls
[2] = molecular target: hemicentin-1 N-(VWFA) terminal part (aa 1–212), LexA fusion bait (pB29-HMCN1) (human) (UniProt Q96RW7); experiment: two-hybrid; library screen by mating (Hybrigenics): HMCN1(1-212)-LexA bait against a random-primed human reconstituted skin (EpiSkin) cDNA library in pP6; His+ colonies selected on medium lacking tryptophan, leucine and histidine
[3] = molecular target: keratin 14 (endogenous, healthy human skin) (human (endogenous in skin)) (UniProt P02533); experiment: proximity ligation; Duolink In Situ Red kit on 5-μm paraffin-embedded tissue sections; rabbit anti-hemicentin-1 or rabbit anti-cytokeratin 5 with mouse anti-cytokeratin 14 antibody
Flag-tagged K14 (human) = Flag-tagged K14 (human) (UniProt P02533); experiment: co-IP; HeLa cells co-transfected for 48 h; lysate in 50 mM Tris, 150 mM NaCl, 5 mM EDTA, 1% NP40; anti-FLAG antibody on protein A/G magnetic beads, overnight at 4°C; immunoblot with anti-His antibody

binding [1]: binds | binding [2]: binds
Substance: keratin 14 (aa 92–188) prey (pP7-KRT14) (from UniProt P02533 92-188) (domain or fragment)

binding [3]: binds
Substance: hemicentin-1 (endogenous, healthy human skin) (from UniProt Q96RW7 22-5635)

binding [3]: binds
Substance: keratin 5 (endogenous, human skin) (from UniProt P13647 1-590)

binding (Flag-tagged K14 (human)): binds
Substance: His-tagged hemicentin-1 VWFA domain (from UniProt Q96RW7 41-216) (domain or fragment)
